The record followed here is paper PMC4139307, “Transforming Growth Factor-β1 Signaling Represses Testicular Steroidogenesis through Cross-Talk with Orphan Nuclear Receptor Nur77”.

Sequences of proteins named here, by UniProt entry; tags and fusion partners are left off.
UniProt P12813, whole entry: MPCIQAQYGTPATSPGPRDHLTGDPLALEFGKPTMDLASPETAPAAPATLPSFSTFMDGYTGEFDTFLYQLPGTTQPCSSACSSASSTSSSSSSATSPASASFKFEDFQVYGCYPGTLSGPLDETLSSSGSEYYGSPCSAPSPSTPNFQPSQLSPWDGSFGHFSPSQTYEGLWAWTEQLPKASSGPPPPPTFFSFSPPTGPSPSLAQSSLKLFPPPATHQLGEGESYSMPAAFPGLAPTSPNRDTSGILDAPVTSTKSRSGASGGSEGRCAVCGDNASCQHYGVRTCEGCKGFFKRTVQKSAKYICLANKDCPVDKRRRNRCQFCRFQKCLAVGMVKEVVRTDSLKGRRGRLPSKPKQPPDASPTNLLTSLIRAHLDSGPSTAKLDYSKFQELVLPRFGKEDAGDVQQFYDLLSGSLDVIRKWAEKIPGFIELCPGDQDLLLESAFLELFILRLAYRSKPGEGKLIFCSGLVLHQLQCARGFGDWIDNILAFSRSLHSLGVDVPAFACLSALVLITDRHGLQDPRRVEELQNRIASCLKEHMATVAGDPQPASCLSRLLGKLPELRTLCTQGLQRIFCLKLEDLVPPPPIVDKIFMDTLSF

The exact form of at least one protein or probe is not confirmed. Weaker means in comparison with the reference protein, sequence or condition of that experiment.

This data set concerns the target GST-Nur77 (UniProt P12813). Description: EMSA. Conditions: increasing GST-Smad3, complex eliminated dose-dependently; recombinant protein; protein details: GST; label: 32P (alpha-32P dCTP labeling). On the technique in general: Mobility shift assays separate free from complexed probe on a gel.

Take “GGGGCTCGTGCGAAAAGGTCAAGCGCTA (double strand) [NBRE oligonucleotide]”: the binding result is “binds more weakly”.
